Values from PubChem BioAssay AID602196 (INSERM, 2012)

Test: 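Modifiers of cisplatin sensitivity in A549 cells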
System: human A549 lung cancer cells
Reagent: siRNA pair against human genes
Timing: 48 h transfection before cisplatin; time from cisplatin to read-out not stated
Conditions: cisplatin at a dose killing half of control-siRNA cells; exact dose and duration not given
Measurement: 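Shift in cisplatin death relative to control siRNA, from -50 (all cells die) to +50 (no cells die); siRNAs harmful on their own scored 0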
Scale: two-siRNA summed score (-2 to +2): higher = both siRNAs protect from cisplatin killing; -2 means both sensitise; mean protection from cisplatin (shift in death): higher = protection from cisplatin killing
Active means: 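Each siRNA scores 0 if harmful alone by LDH or WST-1, otherwise +1 if it reduces and -1 if it increases cisplatin killing; a gene is active when both siRNAs agree (sum +2 or -2)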
Calls: active = both siRNAs shift cisplatin killing the same way; inactive = no consistent shift, or siRNA harmful alone
In all, the deposit lists about 23,000 reagents; this is a random part of them. In the full data, 455 (2%) were called active. 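Active includes both protection and sensitisation; some change values fall well beyond the stated -50 to +50 range.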 Unmarked entries are inactive. Further read-outs or replicates are left out here. Not given: the amount of reagent.

KLF9 | two-siRNA summed score (-2 to +2): 0; mean protection from cisplatin (shift in death) (%): -7.3
CAMK1G | two-siRNA summed score (-2 to +2): 0; mean protection from cisplatin (shift in death) (%): 24.3
MRI1 | two-siRNA summed score (-2 to +2): 0; mean protection from cisplatin (shift in death) (%): -2
LOC440567 | two-siRNA summed score (-2 to +2): 0; mean protection from cisplatin (shift in death) (%): 9.7
HNRNPH3 | two-siRNA summed score (-2 to +2): 1; mean protection from cisplatin (shift in death) (%): 10.6
RENBP | two-siRNA summed score (-2 to +2): 1; mean protection from cisplatin (shift in death) (%): 10.8
ADH1B | two-siRNA summed score (-2 to +2): 0; mean protection from cisplatin (shift in death) (%): -2.1
BORCS8-MEF2B | two-siRNA summed score (-2 to +2): -1; mean protection from cisplatin (shift in death) (%): -6.7
H3C11 | two-siRNA summed score (-2 to +2): 0; mean protection from cisplatin (shift in death) (%): 1.8
BORCS5 | two-siRNA summed score (-2 to +2): 0; mean protection from cisplatin (shift in death) (%): 7.1
CKAP4 | two-siRNA summed score (-2 to +2): -1; mean protection from cisplatin (shift in death) (%): -15.9
TOP6BL | two-siRNA summed score (-2 to +2): 0; mean protection from cisplatin (shift in death) (%): 12.9
LOC439979 | two-siRNA summed score (-2 to +2): 0; mean protection from cisplatin (shift in death) (%): 1.9
NEU2 | two-siRNA summed score (-2 to +2): 0; mean protection from cisplatin (shift in death) (%): -0.3
LOC392173 | two-siRNA summed score (-2 to +2): 0; mean protection from cisplatin (shift in death) (%): 5.9
AP4B1 | two-siRNA summed score (-2 to +2): 0; mean protection from cisplatin (shift in death) (%): 6.3
LONP2 | two-siRNA summed score (-2 to +2): 0; mean protection from cisplatin (shift in death) (%): -6.6
LOC440823 | two-siRNA summed score (-2 to +2): 1; mean protection from cisplatin (shift in death) (%): 15.3
CSTF2 | two-siRNA summed score (-2 to +2): 0; mean protection from cisplatin (shift in death) (%): 3.3
TRIM33 | two-siRNA summed score (-2 to +2): -1; mean protection from cisplatin (shift in death) (%): -20.8
NOS1 | two-siRNA summed score (-2 to +2): 0; mean protection from cisplatin (shift in death) (%): 7.4
BICD2 | two-siRNA summed score (-2 to +2): 0; mean protection from cisplatin (shift in death) (%): 4
ACAD8 | two-siRNA summed score (-2 to +2): 0; mean protection from cisplatin (shift in death) (%): -5.6
EMC3 | two-siRNA summed score (-2 to +2): 0; mean protection from cisplatin (shift in death) (%): -4
FCHO1 | two-siRNA summed score (-2 to +2): 0; mean protection from cisplatin (shift in death) (%): 0.4
TTC33 | two-siRNA summed score (-2 to +2): 0; mean protection from cisplatin (shift in death) (%): 9.5
MED19 | two-siRNA summed score (-2 to +2): 0; mean protection from cisplatin (shift in death) (%): 4.2
LOC441682 | two-siRNA summed score (-2 to +2): 0; mean protection from cisplatin (shift in death) (%): 2.3
LOC441928 | two-siRNA summed score (-2 to +2): 0; mean protection from cisplatin (shift in death) (%): 7.3
LOC391779 | two-siRNA summed score (-2 to +2): 1; mean protection from cisplatin (shift in death) (%): 7.6
SEMA3E | two-siRNA summed score (-2 to +2): 1; mean protection from cisplatin (shift in death) (%): 16.5
